These results are taken from patent publication US12144864B2 (Regeneron Pharmaceuticals, Inc., priority 2018, dated 2024).

This data set in a line: peptide synthesis.
Where [1] appears, read: whole synthesis, HPLC-MS, Agilent 1200 HPLC/6100 SQ, C18 columns, DAD (214 nm and 254 nm), ELSD.
Where [2] appears, read: conjugation step, HPLC-MS, Agilent 1200 HPLC/6100 SQ, C18 columns, DAD (214 nm and 254 nm), ELSD.

Turning to “2-4-(2-((1R,3R)-1-acetoxy-3-((2S,3S)—N-(hex-5-ynyl)-3-methyl-2-((R)-1-methylpiperidine-2-carboxamido)pentanamido)-4-methylpentyl)thiazole-4-carboxamido)-5-(3-((benzyloxycarbonyl)(methyl)amino)-4-fluorophenyl)-2,2-dimethylpentanoic acid”, the step yield (coupling step) came out at 47%. For “4-(2-((1R,3R)-1-acetoxy-3-((2S,3S)—N-hexyl-3-methyl-2-((R)-1-methylpiperidine-2-carboxamido)pentanamido)-4-methylpentyl)thiazole-4-carboxamido)-5-(4-fluoro-3-(methylamino)phenyl)-2,2-dimethylpentanoic acid”, the step yield (late stage modification step) was 38%. Moreover, the “final HPLC purity” value under setting [1] is 100%. Under “conjugation step”, “4-((S)-2-((S)-2-(6-(2,5-dioxo-2,5-dihydro-1H-pyrrol-1-yl)hexanamido)-3-methylbutanamido)-5-ureidopentanamido)benzyl-((2S,4R)-4-(2-((1R,3R)-1-acetoxy-3-((2S,3R)—N-hexyl-3-methyl-2-((R)-1-methylpiperidine-2-carboxamido)pentanamido)-4-methylpentyl)thiazole-4-carboxamido)-5-(4-fluorophenyl)-2-methylpentanoyl)hydrazinecarboxylate” displayed a conjugation yield of 66%. Also, the “final HPLC purity” value under setting [2] amounted to 85%. As to “4-({2-[(1R,3R)-1-(Acetyloxy)-3-[(2S,3S)—N-(hex-5-yn-1-yl)-3-methyl-2-{[(2R)-1-methylpiperidin-2-yl]formamido}pentanamido]-4-methylpentyl]-1,3-thiazol-4-yl}formamido)-5-[3-(dibenzylamino)-4-fluorophenyl]-2,2-dimethylpentanoic acid”, for the setting “coupling step”, the step yield is on record as 40%.

On to “4-({2-[(1R,3R)-1-(Acetyloxy)-3-[(2S,3S)—N-hexyl-3-methyl-2-{[(2R)-1-methylpiperidin-2-yl]formamido}pentanamido]-4-methylpentyl]-1,3-thiazol-4-yl}formamido)-5-(3-amino-4-fluorophenyl)-2,2-dimethylpentanoic acid”, for which, under “late stage modification step”, the step yield is on record as 23%. Also, under setting [1], the “final HPLC purity” value is listed as 100%. In the case of “4-({2-[(1R,3R)-1-(Acetyloxy)-3-[(2S,3S)—N-hexyl-3-methyl-2-{[(2R)-1-methylpiperidin-2-yl]formamido}pentanamido]-4-methylpentyl]-1,3-thiazol-4-yl}formamido)-5-(4-amino-3-fluorophenyl)-2,2-dimethylpentanoic acid”, the “final HPLC purity” value (whole synthesis, HPLC-MS, Agilent 1200 HPLC/6100 SQ, C18 columns, DAD (214 nm and 254 nm), ELSD, run 1) is listed as 95%; the “final HPLC purity” value (whole synthesis, HPLC-MS, Agilent 1200 HPLC/6100 SQ, C18 columns, DAD (214 nm and 254 nm), ELSD, run 2) was more than 99%. On to “(1R,3R)-1-(4-((S)-1-(4-Aminophenyl)-5-hydrazinyl-4,4-dimethyl-5-oxopentan-2-ylcarbamoyl)thiazol-2-yl)-3-((2S,3S)—N-hexyl-3-methyl-2-((R)-1-methylpiperidine-2-carboxamido)pentanamido)-4-methylpentyl acetate”, for which the step yield (late stage modification step, from Fmoc-IVq) was 11%. Moreover, the “final HPLC purity” value under setting [1] was 95%. Consider “(1R,3R)-1-(4-{[(2R,4S)-4-{N′-[({4-[(2S)-2-[(2S)-2-[1-(4-{2-azatricyclo[10.4.0.0^{4,9}]hexadeca-1(12),4(9),5,7,13,15-hexaen-10-yn-2-yl}-4-oxobutanamido)-3,6,9,12-tetraoxapentadecan-15-amido]-3-methylbutanamido]-5-(carbamoylamino)pentanamido]phenyl}methoxy)carbonyl] hydrazinecarbonyl}-1-(4-hydroxyphenyl)-4-methylbutan-2-yl]carbamoyl}-1,3-thiazol-2-yl)-3-[(2S,3S)—N-(hexyloxy)-3-methyl-2-{[(2R)-1-methylpiperidin-2-yl]formamido}pentanamido]-4-methylpentyl acetate”, for which, for the setting “conjugation step”, the conjugation yield is 27%. Besides, under setting [2], the “final HPLC purity” value was 95%. With “(2S,3S,4S,5R,6S)-6-(4-{[({4-[(2S)-2-({2-[(1R,3R)-1-(Acetyloxy)-4-methyl-3-[(2S,3S)-3-methyl-2-{[(2R)-1-methylpiperidin-2-yl]formamido}-N-(pent-4-yn-1-yloxy)pentanamido]pentyl]-1,3-thiazol-4-yl}formamido)-4-carboxy-4,4-dimethylbutyl]phenyl}carbamoyl)oxy]methyl}-2-({2-[2-(cyclooct-2-yn-1-yloxy)acetamido]ethyl}carbamoyl)phenoxy)-3,4,5-trihydroxyoxane-2-carboxylic acid”, under setting [2], the “final HPLC purity” value is on record as more than 95%. Besides, the step yield (coupling step) came out at 36%. The substance “(2S,4R)-4-(2-((1R,3R)-1-Acetoxy-3-((2S,3S)—N-(3-hydroxypropoxy)-3-methyl-2-((R)-1-methylpiperidine-2-carboxamido)pentanamido)-4-methylpentyl)thiazole-4-carboxamido)-5-(4-hydroxyphenyl)-2-methylpentanoic acid” returned a step yield (late stage modification step) of 41%. With “(2S,4R)-4-(2-((8R,10R)-1-(4-Aminophenyl)-8-isopropyl-7-((2S,3S)-3-methyl-2-((R)-1-methylpiperidine-2-carboxamido)pentanoyl)-12-oxo-2,6,11-trioxa-7-azatridecan-10-yl)thiazole-4-carboxamido)-5-(4-hydroxyphenyl)-2-methylpentanoic acid”, the step yield (late stage modification step) is 53%. The substance “(2S,4R)-4-({2-[(1R,3R)-1-(Acetyloxy)-3-[(2S,3S)—N-(hex-5-yn-1-yl)-3-methyl-2-{[(2R)-1-methylpiperidin-2-yl]formamido}pentanamido]-4-methylpentyl]-1,3-thiazol-4-yl}formamido)-5-(4-aminophenyl)-2-methylpentanoic acid” displayed a step yield (coupling step) of 30% yield. The “final HPLC purity” value is, setting by setting: (coupling step, Method B) more than 99%; under setting [1], 100%. Under “coupling step”, “(2S,4R)-4-({2-[(1R,3R)-1-(Acetyloxy)-3-[(2S,3S)—N-(hex-5-yn-1-yl)-3-methyl-2-{[(2R)-1-methylpiperidin-2-yl]formamido}pentanamido]-4-methylpentyl]-1,3-thiazol-4-yl}formamido)-5-(4-fluorophenyl)-2-methylpentanoic acid” displayed a step yield of 45% yield. The “final HPLC purity” value (coupling step, Method A) is on record as more than 99% and the “final HPLC purity” value under setting [1] came to 100%. For the setting “coupling step”, “(2S,4R)-4-({2-[(1R,3R)-1-(Acetyloxy)-3-[(2S,3S)—N-(hex-5-yn-1-yl)-3-methyl-2-{[(2R)-1-methylpiperidin-2-yl]formamido}pentanamido]-4-methylpentyl]-1,3-thiazol-4-yl}formamido)-5-(4-hydroxyphenyl)-2-methylpentanoic acid” displayed a step yield of 43% yield. Besides, the “final HPLC purity” value reads like this: (coupling step, Method B) more than 99%; under setting [1], 100%. For the substance “(2S,4R)-4-({2-[(1R,3R)-1-(Acetyloxy)-4-methyl-3-[(2S,3S)-3-methyl-2-{[(2R)-1-methylpiperidin-2-yl]formamido}-N-(pent-4-yn-1-yloxy)pentanamido]pentyl]-1,3-thiazol-4-yl}formamido)-5-(4-aminophenyl)-2-methylpentanoic acid”, where the note is “coupling step”, the step yield was determined as 60%. Further, the “final HPLC purity” value (coupling step, Method A) is more than 99%. “(2S,4R)-4-({2-[(1R,3R)-1-(Acetyloxy)-4-methyl-3-[(2S,3S)-3-methyl-2-{[(2R)-1-methylpiperidin-2-yl]formamido}-N-(pent-4-yn-1-yloxy)pentanamido]pentyl]-1,3-thiazol-4-yl}formamido)-5-(4-fluorophenyl)-2-methylpentanoic acid”: the step yield (coupling step) came to 20%. Further, under “coupling step, Method B”, the “final HPLC purity” value turned out to be 98%.
